These are yes or no findings as the source states them, for the method shown. In cells and extracts the contact can be indirect. Some results given as binding are weak or reduced against the parent protein; the word gives no strength. Tags and fused reporters may be left off the sequences shown.
Biological target: T1, 3X FLAG-TRIM71 (UniProt Q1PSW8)
T1 sequence: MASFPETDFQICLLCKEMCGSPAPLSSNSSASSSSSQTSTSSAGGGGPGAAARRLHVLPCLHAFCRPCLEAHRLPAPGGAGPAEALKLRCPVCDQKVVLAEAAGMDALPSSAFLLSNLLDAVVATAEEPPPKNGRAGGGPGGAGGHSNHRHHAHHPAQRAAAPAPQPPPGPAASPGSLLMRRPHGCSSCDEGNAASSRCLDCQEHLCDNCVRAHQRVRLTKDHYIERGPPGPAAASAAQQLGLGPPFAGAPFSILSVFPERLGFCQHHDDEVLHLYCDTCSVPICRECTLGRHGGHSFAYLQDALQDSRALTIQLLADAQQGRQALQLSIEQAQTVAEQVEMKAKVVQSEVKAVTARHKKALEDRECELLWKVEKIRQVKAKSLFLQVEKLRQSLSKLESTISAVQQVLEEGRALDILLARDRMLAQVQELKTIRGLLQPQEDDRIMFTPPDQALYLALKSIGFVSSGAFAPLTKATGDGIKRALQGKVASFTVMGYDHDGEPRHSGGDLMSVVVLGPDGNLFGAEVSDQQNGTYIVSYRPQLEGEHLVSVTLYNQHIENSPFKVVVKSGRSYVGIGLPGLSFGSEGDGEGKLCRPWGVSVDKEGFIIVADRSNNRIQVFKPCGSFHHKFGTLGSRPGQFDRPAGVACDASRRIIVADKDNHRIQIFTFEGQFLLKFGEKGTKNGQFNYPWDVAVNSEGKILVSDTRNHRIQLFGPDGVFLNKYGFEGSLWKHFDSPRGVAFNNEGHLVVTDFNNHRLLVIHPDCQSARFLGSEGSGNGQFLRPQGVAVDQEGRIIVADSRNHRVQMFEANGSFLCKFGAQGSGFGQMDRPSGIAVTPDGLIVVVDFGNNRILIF
Test: co-IP; HEK293 cells co-transfected with 3X FLAG-TRIM71 and 3X HA-SHCBP1, with or without Trincr1 expression vector; lysate in 50 mM Tris-HCl, 140 mM NaCl, 0.5% NP-40, 1 mM EDTA, 10% glycerol; FLAG antibody and protein G Dynabeads, 12 h at 4 °C; western blot

binding: binds
B1: 3X HA-SHCBP1 (protein, UniProt Q9Z179 1-668)
chain: MADDLRAGGVLEPIAMVPPRPDLAAEKEPASWKEGLFLDADPCSDQGYHANPGATVKTLIPEGKTPFPRIIQTNELLFYERFRAYQDYILADCKASEVKEFTVSFLEKVLEPSGWWAVWHTNVFEVLVEVTNVDFPSLKAVVRLAEPCIYESKLSTFTLANVKELLDLKEFHLPLQELWVVSDDSHEFHQMALAIEHVRFFYKHIWRSWDEEEEDEYDYFVRCVEPRLRLYYDILEDRVPSGLIVDYHNLLSQCEESYRKFLNLRSSLSNCNSDSEQENISMVEGLNLYSEIEQLKQKLKLIENPLLRYVFGYQKNSNIQGKGTRQNGQKVIHVVSSTMKTGLLRSLFKDRFCEESCKEETEIKFHSDLLSGINACYDGDTVIICPGHYVVHGTCSIADSIELEGYGLPDDIVIEKRGKGDTFVDCTGMDVKISGIKFIQHDSVEGILIIHHGKTTLENCVLQCETTGVTVRTSAELFMKNSDVYGAKGAGIEIYPGSKCTLTDNGIHHCKEGILIKDFLDEHYDIPKISMINNVIHNNEGYGVVLVKPTIFCDLQENTQDEINDNMVQKNKEADVTEGLDLEEMLQCVASKMEPYATADFNEQAKGNCEIINELLAISMQKGRMKKRLSELGITQADDNIMSQEMFIEIMGNQFKWNGKGSFGTFLY

Reference: paper PMC6433952
